Test system: Toxoplasma gondii RH-2F tachyzoites
Assay: microbe, parasite or virus in culture
Details: 72 h, read-out: Parasite inhibition (%) mean

CCS(=O)(=O)N1CC(CC#N)(n2cc(-c3ncnc4[nH]ccc34)cn2)C1 [Baricitinib (LY3009104, INCB28050)]
inhibition of growth at 5 µM: 32.5%

Reference: paper PMC7216583 (Parasites & Vectors, 2020)
